Our source for the binding values is paper PMC9962925, “PKD autoinhibition in trans regulates activation loop autophosphorylation in cis” (Proceedings of the National Academy of Sciences of the …, 2023).

These are yes or no findings as the source states them, for the method shown.

In experiment [1] the target is PKD1^KD S738E/S742E (human) (UniProt Q15139). The experiment can be described thus: SEC; analytical size exclusion chromatography of purified proteins (Fig. 1C); elution volumes calibrated to monomer and dimer masses by SEC-MALS; both purified.
For experiment [2] the target is unchanged. Nature of the experiment: SEC-MALS; 60 uL of purified protein at 2 mg/mL on an S200 10/300 column, room temperature, 20 mM HEPES pH 7.4, 150 mM KCl, 1 mM EDTA, 1 mM TCEP, 1% glycerol (Fig. 1H); both purified. (Size exclusion chromatography separates by hydrodynamic size, large species first.)
Experiment [3] concerns the target PKD1^KD D706N/2E (human) (UniProt Q15139). Nature of the experiment: SEC; analytical size exclusion chromatography of purified proteins (Fig. 1C); elution volumes calibrated to monomer and dimer masses by SEC-MALS; both purified.
Experiment [4] addresses PKD1^KD R732M 2E (human) (UniProt Q15139). The description is as above.

B1: PKD1^KD S738E/S742E (domain or fragment, UniProt Q15139 570-890)
chain: QIQENVDISTVYQIFPDEVLGSGQFGIVYGGKHRKTGRDVAIKIIDKLRFPTKQESQLRNEVAILQNLHHPGVVNLECMFETPERVFVVMEKLHGDMLEMILSSEKGRLPEHITKFLITQILVALRHLHFKNIVHCDLKPENVLLASADPFPQVKLCDFGFARIIGEKEFRREVVGTPAYLAPEVLRNKGYNRSLDMWSVGVIIYVSLSGTFPFNEDEDIHDQIQNAAFMYPPNPWKEISHEAIDLINNLLQVKMRKRYSVDKTLSHPWLQDYQTWLDLRELECKIGERYITHESDDLRWEKYAGEQGLQYPTHLINPSAS
Turning to B1, the binding result was “no binding” in experiment [1] and “no binding (tested: 2 mg/mL injected)” in experiment [2].

B2: PKD1^KD D706N/2E (domain or fragment, UniProt Q15139 570-890)
chain: QIQENVDISTVYQIFPDEVLGSGQFGIVYGGKHRKTGRDVAIKIIDKLRFPTKQESQLRNEVAILQNLHHPGVVNLECMFETPERVFVVMEKLHGDMLEMILSSEKGRLPEHITKFLITQILVALRHLHFKNIVHCNLKPENVLLASADPFPQVKLCDFGFARIIGEKEFRREVVGTPAYLAPEVLRNKGYNRSLDMWSVGVIIYVSLSGTFPFNEDEDIHDQIQNAAFMYPPNPWKEISHEAIDLINNLLQVKMRKRYSVDKTLSHPWLQDYQTWLDLRELECKIGERYITHESDDLRWEKYAGEQGLQYPTHLINPSAS
As for B2, the binding entry in experiment [3] was “no binding”.

B3: PKD1^KD R732M 2E (domain or fragment, UniProt Q15139 570-890)
chain: QIQENVDISTVYQIFPDEVLGSGQFGIVYGGKHRKTGRDVAIKIIDKLRFPTKQESQLRNEVAILQNLHHPGVVNLECMFETPERVFVVMEKLHGDMLEMILSSEKGRLPEHITKFLITQILVALRHLHFKNIVHCDLKPENVLLASADPFPQVKLCDFGFAMIIGEKEFRREVVGTPAYLAPEVLRNKGYNRSLDMWSVGVIIYVSLSGTFPFNEDEDIHDQIQNAAFMYPPNPWKEISHEAIDLINNLLQVKMRKRYSVDKTLSHPWLQDYQTWLDLRELECKIGERYITHESDDLRWEKYAGEQGLQYPTHLINPSAS
Take B3: the binding entry in experiment [4] is given as “no binding”.
